Patent publication US6005007A, “Retinoids, methods for their production and use” (priority 1997, dated 1999)
At least one structure is not confirmed: it was looked up by name or label, or the drawing left a doubt.

Key:
[1] = test system: RAR receptors; experiment: Co-transfection assay, RAR subfamily (summary in words); assay type: cell-based; conditions: CV-1 cells
Description: (§1) Utilizing the "cis-trans" or "co-transfection" assay described by Evans et al., Science, 240:889-95 (May 13, 1988), the disclosure of which is herein incorporated by reference, the retinoid compounds of the present invention were tested and found to have strong, specific activity as either selective RXR agonists, or as pan-agonist activators of both RAR and RXR receptors. This assay is described in further detail in U.S. Pat. Nos. 4,981,784 and 5,071,773, the disclosures of which are incorporated herein by reference.
(§2) In the co-transfection assay, a cloned cDNA for an IR (e.g., human RARα, RARβ, RXRγ) under the control of a constitutive promoter (e.g., the SV 40 promoter) is introduced by transfection (a procedure to induce cells to take up foreign genes) into a background cell substantially devoid of endogenous IRs. This introduced gene directs the recipient cells to make the IR protein of interest. A second gene is also introduced (co-transfected) into the same cells in conjunction with the IR gene. […]
(§3) The co-transfection assay can detect small molecule agonists or antagonists of target IRs. […] This activity can be conveniently measured, e.g., by increasing luciferase production, which reflects compound-dependent, IR-mediated increases in reporter transcription. […]

[2] = test system: RAR and RXR receptors; experiment: Co-transfection assay, RAR and RXR subfamilies (summary in words); assay type: cell-based; conditions: CV-1 cells
Description: as §1, §2, §3

CC(/C=C/CC1(c2cc3c(cc2C)C(C)(C)CCC3(C)C)CC1)=C\C(=O)O [Compound 102, (2E, 4E)-6-[(3,5,5,8,8-Pentamethyl-5,6,7,8-tetrahydronaphthalen-2-yl)cyclopropan-1-yl]-3-methyl hexadienoic acid]
activity for the RAR receptors [1]: no activity at all | RXR selectivity / pan-agonist activity [2]: extremely potent RXR selective compounds
